The target of assay [1] is T1, TSC2 (human, UniProt P49815 1-1807, limits assumed).
T1 construct: Untagged TSC2 in 293T cell extracts, endogenous or from a transfected TSC2 cDNA; Some extracts of the pull-downs may hold HA-TSC2; also called tuberin; endogenous TSC2
In words: in vitro pull-down from extract (FIG. 13).

Chains of the proteins cited; added tags and fusions are not shown. Lines headed by an entry give the natural chain unless they say otherwise; changes in a name come on top.
UniProt P49815: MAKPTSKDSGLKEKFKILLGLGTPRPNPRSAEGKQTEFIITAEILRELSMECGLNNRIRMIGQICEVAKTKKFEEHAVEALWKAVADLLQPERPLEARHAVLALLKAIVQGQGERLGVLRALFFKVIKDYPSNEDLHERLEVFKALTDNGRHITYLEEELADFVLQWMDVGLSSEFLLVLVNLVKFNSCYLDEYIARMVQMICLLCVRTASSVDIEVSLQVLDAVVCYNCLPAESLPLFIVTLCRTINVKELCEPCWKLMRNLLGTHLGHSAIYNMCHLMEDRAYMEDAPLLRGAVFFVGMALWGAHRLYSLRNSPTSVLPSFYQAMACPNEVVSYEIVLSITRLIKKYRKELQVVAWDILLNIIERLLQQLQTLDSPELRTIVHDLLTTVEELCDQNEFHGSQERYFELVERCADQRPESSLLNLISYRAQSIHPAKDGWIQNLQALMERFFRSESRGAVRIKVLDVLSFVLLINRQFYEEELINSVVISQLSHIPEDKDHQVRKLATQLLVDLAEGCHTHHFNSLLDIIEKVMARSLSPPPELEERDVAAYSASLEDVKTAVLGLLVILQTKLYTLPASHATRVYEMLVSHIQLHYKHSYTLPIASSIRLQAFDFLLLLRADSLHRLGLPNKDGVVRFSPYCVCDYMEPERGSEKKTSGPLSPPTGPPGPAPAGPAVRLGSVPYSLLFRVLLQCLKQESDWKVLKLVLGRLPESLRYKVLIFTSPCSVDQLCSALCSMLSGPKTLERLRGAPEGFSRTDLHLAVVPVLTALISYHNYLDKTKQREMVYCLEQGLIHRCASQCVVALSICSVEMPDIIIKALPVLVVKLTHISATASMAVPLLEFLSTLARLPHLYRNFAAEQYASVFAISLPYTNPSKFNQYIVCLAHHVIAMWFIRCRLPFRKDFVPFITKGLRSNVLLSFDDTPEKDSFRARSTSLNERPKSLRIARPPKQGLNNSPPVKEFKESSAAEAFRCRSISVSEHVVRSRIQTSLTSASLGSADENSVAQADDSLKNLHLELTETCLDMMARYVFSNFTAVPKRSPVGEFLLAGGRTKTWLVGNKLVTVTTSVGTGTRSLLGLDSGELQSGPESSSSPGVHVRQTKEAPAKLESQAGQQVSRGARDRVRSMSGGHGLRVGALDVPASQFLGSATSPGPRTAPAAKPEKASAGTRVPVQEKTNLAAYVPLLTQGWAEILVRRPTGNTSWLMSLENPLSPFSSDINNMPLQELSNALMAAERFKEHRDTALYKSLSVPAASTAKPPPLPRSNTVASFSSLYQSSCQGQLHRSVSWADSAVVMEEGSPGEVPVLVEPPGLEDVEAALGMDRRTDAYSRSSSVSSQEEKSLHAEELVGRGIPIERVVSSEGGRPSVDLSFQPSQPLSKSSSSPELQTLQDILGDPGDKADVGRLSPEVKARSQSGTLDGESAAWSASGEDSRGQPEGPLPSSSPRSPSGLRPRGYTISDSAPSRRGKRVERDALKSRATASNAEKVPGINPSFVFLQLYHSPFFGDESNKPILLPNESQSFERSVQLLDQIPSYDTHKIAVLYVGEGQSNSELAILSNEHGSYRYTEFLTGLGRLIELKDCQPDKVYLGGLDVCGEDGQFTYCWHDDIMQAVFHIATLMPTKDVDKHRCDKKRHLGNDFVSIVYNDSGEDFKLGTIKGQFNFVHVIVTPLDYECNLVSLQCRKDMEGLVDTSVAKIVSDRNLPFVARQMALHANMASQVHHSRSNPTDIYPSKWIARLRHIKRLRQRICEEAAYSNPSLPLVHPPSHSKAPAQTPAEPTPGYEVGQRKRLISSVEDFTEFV

Assay [2] addresses T1, TSC2. The assay is described as follows: in vitro pull-down (summary of Example 4).
The target of assay [3] is T2, FLAG-hRTP801 (human), Q9NX09.
T2 chain: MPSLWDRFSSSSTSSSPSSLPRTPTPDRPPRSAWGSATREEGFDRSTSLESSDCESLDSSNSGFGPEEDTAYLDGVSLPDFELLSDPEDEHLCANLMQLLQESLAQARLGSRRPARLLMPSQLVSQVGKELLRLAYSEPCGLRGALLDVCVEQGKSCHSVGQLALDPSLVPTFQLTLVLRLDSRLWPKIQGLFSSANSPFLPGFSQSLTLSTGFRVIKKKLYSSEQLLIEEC
The assay is described as follows: co-IP with anti-FLAG resin (FIG. 21). To be noted: remark: other sources report otherwise.

For assay [4] the target is unchanged. In words: HTRF on 293T HEK cytosolic extracts (FIG. 23). To be noted: remark: other sources report otherwise. For orientation: TR-FRET usually uses a lanthanide donor and a delayed reading to cut background.
Assay [5] shares this target. The assay is described as follows: co-IP with M2 anti-FLAG resin from 293T HEK extracts, immunoblot (FIG. 21). To be noted: remark: other sources report otherwise. Background: In western blotting, separated proteins are transferred to a membrane and probed.

These results are taken from patent publication US20080014599A1 (published 2008).

These are yes or no findings as the source states them, for the method shown. For some of these results: Binding seen in cells or lysates may run through a third protein. Some entries that bind do so weakly or less than the wild type. Tags and fused reporters may be left off the sequences shown.

B1: 6× His-hRTP801 C-fragment (protein, not shown: small tags and cut ends)
chain: DEHLCANLMQLLQESLAQARLGSRRPARLLMPSQLVSQVGKELLRLAYSEPCGLRGALLDVCVEQGKSCHSVGQLALDPSLVPTFQLTLVLRLDSRLWPKIQGLFSSANSPFLPGFSQSLTLSTGFRVIKKKLYSSEQLLIEEC
Consider B1, for which the binding entry in assay [1] and in assay [2] was “binds” throughout.

B2: HA-SV5-full length hRTP801, Q9NX09 1-232 (protein, not shown: small tags and cut ends)
chain: MPSLWDRFSSSSTSSSPSSLPRTPTPDRPPRSAWGSATREEGFDRSTSLESSDCESLDSSNSGFGPEEDTAYLDGVSLPDFELLSDPEDEHLCANLMQLLQESLAQARLGSRRPARLLMPSQLVSQVGKELLRLAYSEPCGLRGALLDVCVEQGKSCHSVGQLALDPSLVPTFQLTLVLRLDSRLWPKIQGLFSSANSPFLPGFSQSLTLSTGFRVIKKKLYSSEQLLIEEC
For B2, the binding result in assay [3], in assay [4] and in assay [5] was “binds” each time.

B3: 6× His-hRTP801 (protein, not shown: small tags and cut ends)
chain: MPSLWDRFSSSSTSSSPSSLPRTPTPDRPPRSAWGSATREEGFDRSTSLESSDCESLDSSNSGFGPEEDTAYLDGVSLPDFELLSDPEDEHLCANLMQLLQESLAQARLGSRRPARLLMPSQLVSQVGKELLRLAYSEPCGLRGALLDVCVEQGKSCHSVGQLALDPSLVPTFQLTLVLRLDSRLWPKIQGLFSSANSPFLPGFSQSLTLSTGFRVIKKKLYSSEQLLIEEC
B3: the binding entry in assay [1] and in assay [2] was “binds” in each case.
